Earlier results in paper PMC8284440, “Toward New Transmission-Blocking Combination Therapies: Pharmacokinetics of 10-Amino-Artemisinins and 11-Aza-Artemisinin and Comparison with Dihydroartemisinin and Artemether” (Antimicrobial Agents and Chemotherapy, 2021).

Key:
P. falciparum K1 [1] = test system: P. falciparum K1; set-up: method as in ref 4 (supplement; main text 62); conditions: Table S2; ref 4 (supplement; main text 62); cited from earlier work
P. falciparum W2 [2] = test system: P. falciparum W2; set-up: method as in ref 4 (supplement; main text 62); conditions: Table S2; ref 4 (supplement; main text 62); cited from earlier work
HepG2 = conditions: ref 2 (supplement; main text 48); cited from earlier work
[3] = test system: early stage (>90% stage I-III) P. falciparum NF54 gametocytes; conditions: Table S3; ref 1 and 2 (supplement; main text 47, 48); cited from earlier work
[4] = test system: late stage (>90% stage IV and V) P. falciparum NF54 gametocytes; conditions: Table S3; ref 1 and 2 (supplement; main text 47, 48); cited from earlier work
[5] = test system: P. falciparum artemisinin-resistant clone PL08-009 (5C), PfKI3 C580Y; set-up: method as in ref 2 (supplement; main text 48); conditions: ref 2 (supplement; main text 48); cited from earlier work
[6] = test system: P. falciparum artemisinin-resistant clone ARC08-22 (4G), PfKI3 C580Y; conditions: ref 2 (supplement; main text 48); cited from earlier work
P. falciparum W2 [7] = test system: P. falciparum W2; set-up: method as in ref 1 and 2 (supplement; main text 47, 48); conditions: Table S1 resistance index beside W2; ref 1 and 2 (supplement; main text 47, 48); cited from earlier work
[8] = test system: Chinese hamster ovary (CHO) cells; conditions: selectivity index; ref 1 and 2 (supplement; main text 47, 48); cited from earlier work
P. falciparum K1 [9] = test system: P. falciparum K1; set-up: method as in ref 1 and 2 (supplement; main text 47, 48); conditions: Table S1 resistance index; ref 1 and 2 (supplement; main text 47, 48); cited from earlier work

## C[C@@H]1CC[C@H]2[C@@H](C)C(=O)N[C@@H]3O[C@@]4(C)CC[C@@H]1[C@]32OO4 [11-Aza-artemisinin 11, 11-aza-artemisinin]
P. falciparum K1 [1]
  Resistance Index RIa (IC50 K1/IC50 NF54): 0.90
P. falciparum W2 [2]
  Resistance Index RIb (IC50 W2/IC50 NF54): 0.57

## CO[C@H]1O[C@@H]2O[C@@]3(C)CC[C@H]4[C@H](C)CC[C@@H]([C@H]1C)[C@@]24OO3 [Artemether 3, artemether]
P. falciparum K1 [1]
  Resistance Index RIa (IC50 K1/IC50 NF54): 1.41
P. falciparum W2 [2]
  Resistance Index RIb (IC50 W2/IC50 NF54): 3.60

## C[C@H]1[C@H](N2CCSCC2)O[C@@H]2O[C@@]3(C)CC[C@H]4[C@H](C)CC[C@@H]1[C@@]24OO3 [Artemiside 5, artemiside]
HepG2
  SI (EC50 HepG2/IC50 P. berghei sporozoites): > 308
[3]
  Fold change preference ratio: EG to LG: 0.09
[4]
  Fold change preference ratio: LG to EG: 10.9
[5]
  RI (IC50 PL08-09 (5C)/IC50 W2): 0.1
[6]
  RI (IC50 ARC08-22(4G)/IC50 W2): 1.1
P. falciparum W2 [7]
  RI (W2 column): 1.58
[8]
  SI (EC50 CHO/IC50 NF54): > 45166
P. falciparum K1 [9]
  RI (IC50 K1/IC50 NF54): 1.47

## C[C@H]1[C@H](N2CCS(=O)(=O)CC2)O[C@@H]2O[C@@]3(C)CC[C@H]4[C@H](C)CC[C@@H]1[C@@]24OO3 [Artemisone 6, artemisone]
HepG2
  SI (EC50 HepG2/IC50 P. berghei sporozoites): > 1767
[3]
  Fold change preference ratio: EG to LG: 21.9
[4]
  Fold change preference ratio: LG to EG: 0.05
[5]
  RI (IC50 PL08-09 (5C)/IC50 W2): 0.2
[6]
  RI (IC50 ARC08-22(4G)/IC50 W2): 1.0
P. falciparum W2 [7]
  RI (W2 column): 1.36
[8]
  SI (EC50 CHO/IC50 NF54): > 83000
P. falciparum K1 [9]
  RI (IC50 K1/IC50 NF54): 0.85

## C[C@H]1[C@H](Nc2ccc(F)cc2)O[C@@H]2O[C@@]3(C)CC[C@H]4[C@H](C)CC[C@@H]1[C@@]24OO3 [Arylamine 8]
[3]
  Fold change preference ratio: EG to LG: 0.4
[4]
  Fold change preference ratio: LG to EG: 2.3
[5]
  RI (IC50 PL08-09 (5C)/IC50 W2): 3.3
[6]
  RI (IC50 ARC08-22(4G)/IC50 W2): 1.2
P. falciparum W2 [7]
  RI (W2 column): 2.55
[8]
  SI (EC50 CHO/IC50 NF54): 371
P. falciparum K1 [9]
  RI (IC50 K1/IC50 NF54): 0.48

## C[C@H]1[C@H](N2CCN(C(=O)Nc3ccc(F)cc3)CC2)O[C@@H]2O[C@@]3(C)CC[C@H]4[C@H](C)CC[C@@H]1[C@@]24OO3 [Arylurea 10]
[3]
  Fold change preference ratio: EG to LG: 0.47
[4]
  Fold change preference ratio: LG to EG: 2.59
P. falciparum W2 [7]
  RI (W2 column): 0.9
P. falciparum K1 [9]
  RI (IC50 K1/IC50 NF54): 0.65

## CCN(CC)CCCC(C)Nc1ccnc2cc(Cl)ccc12 (stereo not drawn) [Chloroquine]
P. falciparum K1 [9]
  RI (IC50 K1/IC50 NF54): 15.4

## C[C@H]1[C@@H](O)O[C@@H]2O[C@@]3(C)CC[C@H]4[C@H](C)CC[C@@H]1[C@@]24OO3 [DHA 2, dihydroartemisinin]
P. falciparum K1 [1]
  Resistance Index RIa (IC50 K1/IC50 NF54): 1.40
[3]
  Fold change preference ratio: EG to LG: 0.78
[4]
  Fold change preference ratio: LG to EG: 1.3
[5]
  RI (IC50 PL08-09 (5C)/IC50 W2): 1.4
[6]
  RI (IC50 ARC08-22(4G)/IC50 W2): 1.5
P. falciparum W2 [2]
  Resistance Index RIb (IC50 W2/IC50 NF54): 0.65
P. falciparum W2 [7]
  RI (W2 column): 0.7
[8]
  SI (EC50 CHO/IC50 NF54): 10039
P. falciparum K1 [9]
  RI (IC50 K1/IC50 NF54): 0.6

## C[C@H]1[C@H](NS(N)(=O)=O)O[C@@H]2O[C@@]3(C)CC[C@H]4[C@H](C)CC[C@@H]1[C@@]24OO3 [Sulfamide 7]
[3]
  Fold change preference ratio: EG to LG: 28.0
[4]
  Fold change preference ratio: LG to EG: 0.04
[5]
  RI (IC50 PL08-09 (5C)/IC50 W2): 0.4
[6]
  RI (IC50 ARC08-22(4G)/IC50 W2): 1.0
P. falciparum W2 [7]
  RI (W2 column): 0.64
[8]
  SI (EC50 CHO/IC50 NF54): 51376
P. falciparum K1 [9]
  RI (IC50 K1/IC50 NF54): 0.56
